Results from article PMC5680560.
These are yes or no findings as the source states them, for the method shown. Binding seen in cells or lysates may run through a third protein. Some entries that bind do so weakly or less than the wild type.

Protein sequences, listed by entry. Tags and fused reporters are not part of them.
UniProt Q13263: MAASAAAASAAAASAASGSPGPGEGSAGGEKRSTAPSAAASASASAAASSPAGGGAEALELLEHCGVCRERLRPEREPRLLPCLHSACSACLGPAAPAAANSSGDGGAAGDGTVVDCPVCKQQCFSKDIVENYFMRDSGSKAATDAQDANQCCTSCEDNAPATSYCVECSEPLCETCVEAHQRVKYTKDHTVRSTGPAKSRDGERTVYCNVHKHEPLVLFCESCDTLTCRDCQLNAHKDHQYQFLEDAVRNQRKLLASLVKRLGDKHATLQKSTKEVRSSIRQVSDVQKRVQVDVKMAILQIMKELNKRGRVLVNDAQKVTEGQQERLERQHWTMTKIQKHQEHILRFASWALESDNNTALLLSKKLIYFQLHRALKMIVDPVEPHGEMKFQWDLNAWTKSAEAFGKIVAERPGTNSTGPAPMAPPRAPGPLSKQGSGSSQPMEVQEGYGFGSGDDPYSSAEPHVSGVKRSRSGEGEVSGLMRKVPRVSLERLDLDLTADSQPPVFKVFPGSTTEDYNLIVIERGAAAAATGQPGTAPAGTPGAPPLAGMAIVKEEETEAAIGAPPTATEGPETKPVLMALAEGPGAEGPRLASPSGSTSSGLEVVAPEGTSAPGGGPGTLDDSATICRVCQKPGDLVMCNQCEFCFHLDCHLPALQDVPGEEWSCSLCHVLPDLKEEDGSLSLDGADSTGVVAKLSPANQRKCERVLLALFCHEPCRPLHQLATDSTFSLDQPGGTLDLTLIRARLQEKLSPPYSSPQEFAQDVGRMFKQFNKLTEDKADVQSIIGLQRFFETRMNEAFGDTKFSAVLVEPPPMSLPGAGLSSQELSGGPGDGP
UniProt O15524: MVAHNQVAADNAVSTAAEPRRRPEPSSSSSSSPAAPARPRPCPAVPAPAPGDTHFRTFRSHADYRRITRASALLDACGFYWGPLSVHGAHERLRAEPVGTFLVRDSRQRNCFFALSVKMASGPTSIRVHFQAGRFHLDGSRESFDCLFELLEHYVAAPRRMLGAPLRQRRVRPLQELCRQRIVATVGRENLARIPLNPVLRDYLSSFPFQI

Legend:
[1] = biological target: KAP1 (endogenous, U2OS cells) (human (endogenous in U2OS)) (UniProt Q13263); experiment: co-IP; U2OS lysates (empty vector or SOCS1 overexpressing), 2 mg extract; IP with anti-KAP1 or, reciprocally, anti-SOCS1 or a control antibody overnight at 4°C, Protein A Sepharose; Cell Lysis Buffer (20 mM Tris-HCl pH 7.5, 150 mM NaCl, 1% Triton X-100); Western blots for KAP1 and SOCS1
[2] = biological target: SOCS1 (wild type, expressed in U2OS cells) (UniProt O15524); experiment: as above

Row | binding [1] | binding [2] | Substance
1 | binds | – | SOCS1 (wild type, expressed in U2OS cells) (from UniProt O15524 1-211)
2 | – | binds | KAP1 (endogenous, U2OS cells) (from UniProt Q13263 1-835)
